“And” between values parts separate entries of the source, which are not always exact repeats. Identical values can stand only once.
Tested on: MITF gene
Assay: MITF gene activity by real-time PCR
Assay type: cell-based, mice
Details: Table 2; three replicates; C2-P4 10 μM, α-MSH 50 nM, 48 hours
Experimental: B16-F10 cells purchased from the Korean Cell Line Bank were inoculated into 3 mL of a DMEM medium containing 10% FBS at a concentration of 1×10^5 cells/well in a 6-well plate and cultured in an incubator of 37° C. and 5% CO2 for 24 hours to form a cell monolayer. The medium in a negative control was replaced with a DMEM medium, and the medium in peptide-treated experimental groups and α-MSH experimental groups was replaced with a medium containing 10 μM of each of the peptides and 50 nM of α-MSH, respectively, and then the cells were cultured for 48 hours. Each of the experimental groups was washed twice with PBS, the cells were obtained with trypsin-EDTA and centrifuged at 1500 rpm for 5 minutes to separate the cells. RNA was extracted from the separated cells using Trizol, and each 1,000 ng of cDNA was synthesized using reverse transcriptase. Using 100 ng of each of the synthesized cDNAs, the expression levels of GAPDH and […] were confirmed using real-time PCR. The primers used for the real-time PCR were SEQ ID NOs: 9 and 10. Alternatively, the polynucleotide sets of SEQ ID NOs: 11 and 12 were used.

α-MSH
GAPDH (real-time PCR value): 23.41 and 23.36 and 23.74
